No constants are given. Whether binding was seen depends on the method and setting. In cells and extracts the contact can be indirect. A yes stands for co-enrichment or nearness to the bait. Other partners may have been found.

Chains of the proteins cited; added tags and fusions are not shown.
UniProt P25490: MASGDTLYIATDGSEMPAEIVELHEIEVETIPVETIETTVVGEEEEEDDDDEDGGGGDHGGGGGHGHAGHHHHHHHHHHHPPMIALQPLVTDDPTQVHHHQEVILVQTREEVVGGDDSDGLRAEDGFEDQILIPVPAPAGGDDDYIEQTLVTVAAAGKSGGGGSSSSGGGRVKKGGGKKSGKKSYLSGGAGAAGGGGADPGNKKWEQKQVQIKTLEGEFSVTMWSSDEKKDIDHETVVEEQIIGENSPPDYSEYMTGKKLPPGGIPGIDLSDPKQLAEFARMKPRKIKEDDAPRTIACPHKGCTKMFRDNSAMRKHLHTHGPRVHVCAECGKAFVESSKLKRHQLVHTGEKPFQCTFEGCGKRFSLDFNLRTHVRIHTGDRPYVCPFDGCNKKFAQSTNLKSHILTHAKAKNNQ

In this assay the target is T1, fibrillarin (FBL), bait of the pull-down assays (UniProt P22087).
T1 sequence: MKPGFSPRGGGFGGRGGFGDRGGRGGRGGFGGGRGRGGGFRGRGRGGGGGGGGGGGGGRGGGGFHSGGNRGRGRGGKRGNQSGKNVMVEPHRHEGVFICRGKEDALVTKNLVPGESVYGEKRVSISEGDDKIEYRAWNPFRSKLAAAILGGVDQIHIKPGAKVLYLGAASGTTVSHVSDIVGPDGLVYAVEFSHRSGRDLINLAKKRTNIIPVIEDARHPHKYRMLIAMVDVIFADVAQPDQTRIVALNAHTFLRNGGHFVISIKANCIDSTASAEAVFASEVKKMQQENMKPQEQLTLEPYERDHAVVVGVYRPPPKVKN
Kind of assay: affinity purification with mass spectrometry; FBL pull-down assay followed by mass spectrometry; 13 potential interacting proteins; bait construct and sample not told.

In the case of “YY1 (transcriptional repressor protein YY1), found by mass spectrometry in the FBL pull-down (from UniProt P25490 1-414)”, the binding entry is recorded as “binds”.

(Values after paper PMC12034760, “FBL promotes hepatocellular carcinoma tumorigenesis and progression by recruiting YY1 to enhance CAD gene expression” (Cell Death & Disease, 2025).)
